Experimental data as given in PubChem BioAssay AID687031 (Broad Institute, 2013).
Hit rate of the full screen: of about 1,400 compounds, about 50 (4%) were called active.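 Rule for the calls: active = fitted curve reaches 30% CPE protection at or below the top valid dose, with every test run called active; inconclusive = test runs disagree, some active and some not; inactive = every test run inactive, including effects in the wrong direction.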 This is one part of the list. Results with a measured potency or affinity are listed apart.

Assay: Dengue virus 2 cytopathic effect protection, dose response, BHK-21 cells, ATP luminescence, cherry-pick (AID 687031);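 note: 0% = infected DMSO wells and 100% = uninfected cell wells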
Settings: BHK-21 DENV2 CPE protection, 5 d; at 19.5 µM (top of the series) unless noted

CPE protection (higher = active), inactive:
COC(=O)C[C@H]1c2cc(C(F)(F)F)ccc2S(=O)(=O)N1Cc1ccc(OC)cc1 14.6%, O=C(NC1(Cc2ccccc2)CCN(CCc2cccs2)C1=O)c1ccccc1 (configuration not stated) 5.82%, COc1ccc(S(=O)(=O)N(CC(C)C)CC(C)C)c2cccnc12 -14.7%, Cc1ccc(NC(=O)C2CCN(S(C)(=O)=O)CC2)cc1Cl 20.7%, C[C@@H]1CCCCO[C@H](CN(C)S(C)(=O)=O)[C@@H](C)CN([C@H](C)CO)C(=O)c2cc(NC(=O)CCC(F)(F)F)ccc2O1 -9.98%, CCNC(=O)C[C@H]1CC[C@H]2[C@@H](COC[C@H](O)CN2C(=O)c2cccnc2)O1 24.6%, CN(C)c1ccc(-c2cc3ccccc3c(=O)o2)cc1 25%, CCOc1ncccc1C(=O)OCC(=O)NCc1ccc(C(=O)OC)cc1 -12.9%, CCC(=O)N1C[C@H](O)COC[C@H]2O[C@@H](CC(=O)NCc3ccc(Oc4ccccc4)cc3)CC[C@@H]21 4.3%, CN(Cc1ccccc1)C(=O)c1nc[nH]c1C(=O)N1CCN(C(=O)OC(C)(C)C)CC1 5.46%, O=C(CCc1nnc(Cc2c[nH]c3ccccc23)o1)NCCC1CCCCO1 (configuration not stated) 17.1%, CC(C)(C)c1ccc(C(=O)Nc2ccc3c(c2)C(=O)NC3=O)cc1 -8.18%, COCCNC(=O)C1(C)CCCN(C(=O)c2ccc(C(F)(F)F)cc2)C1 (configuration not stated) 16.3%, F[B-](F)(F)c1cnc2ccccc2c1 3.87%, C[C@H](CO)N1C[C@H](C)[C@@H](CN(C)C(=O)CCCN(C)C)OCCCC[C@H](C)Oc2ccc(NC(=O)CCCN(C)C)cc2C1=O -4.32%, O=C(Nc1cccc(Cl)c1)c1ccccc1 -11.5%, CC(C)CCCN1CCN=C1Nc1ccccc1 -1.07%, Cc1ccc(F)cc1C(=O)N1CCCCC1c1cc(C(=O)NC(C)C)no1 (configuration not stated) 0.927%, Cc1cccnc1NC(=O)c1cccc(S(=O)(=O)N2CCCC2)c1 7.84%, CC(C)(C)c1ccc(NC(=O)NC2CCCc3ccccc32)cc1 (configuration not stated) -3.54%, Cc1ccc(C2(C)NC(=O)N(CC(=O)Nc3ccccc3C(=O)NC3CCCC3)C2=O)cc1 (configuration not stated) -15.6%, COCCNC(=O)C1CCC(CNS(=O)(=O)c2ccc(F)cc2)CC1 (configuration not stated) -10.5%, CC1Cc2ccccc2N1S(=O)(=O)c1cnc(Cl)c(Br)c1 (configuration not stated) 10.4%, CCCCCc1c(-c2ccccc2OC)ncn1CCc1ccccc1OC -45.3%, O=C(NCC1CCCCC1)[C@H]1[C@H](CO)[C@H]2Cn3c(cccc3=O)[C@@H]1N2CCc1ccccc1 1.51%, CC(C)(C(=O)N1CCC1(C)C(=O)Nc1ccccc1Br)c1ccccc1 (configuration not stated) -12.7%, CCOc1ccc(C(=O)Nc2ccc(CN3CCOCC3)cc2)cc1Cl 2.94%, CC(=O)N1c2ccc(S(=O)(=O)NCCC(=O)N3CCCC(C)C3)cc2CC1C (configuration not stated) -15.9%, COc1cccc(NC(=O)CN(C)C(=O)c2cccc(S(=O)(=O)N3c4ccccc4CC3C)c2)c1 (configuration not stated) 21%, COc1ccc(-c2csc(C(O)c3cccc(OC)c3)n2)cc1 (configuration not stated) 1.12%, COc1cccc(OCc2cc(C(=O)N(C)CCC3CCCCO3)no2)c1 (configuration not stated) -20.7%, Cc1cc(Br)ccc1NC(=O)CN(C)C(=O)COc1cccc2c1OC(C)(C)C2 -3.52%, CC(C)(C)C1CCC(=O)N(CCOc2ccccc2)CC1 (configuration not stated) -17%, O=C(Nc1ccc2ccccc2c1)C(C1CC1)n1c(=O)c(-c2cc3ccccc3[nH]2)nc2ccccc21 (configuration not stated) -19.6%, COc1cc(C)ccc1OCc1cc(C(=O)NCCN2CCCC(O)C2)no1 (configuration not stated) 4.9%, CC1(C(=O)NS(=O)(=O)c2ccccc2C(F)(F)F)CCN1C(=O)CCc1ccccc1 (configuration not stated) -5.16%, Cc1cccc(C)c1NC(=O)C(C)n1c(-c2ccc(=O)[nH]c2)nc2ccccc21 (configuration not stated) 6.02%, N#C[C@@H]1[C@H](c2ccc(C#Cc3ccccc3F)cc2)[C@H](CO)N1C(=O)C1CCC1 -5.68%, C[C@@H]1CN([C@H](C)CO)C(=O)Cc2cc(NC(=O)C3CC3)ccc2O[C@H]1CN(C)C(=O)Nc1ccccc1 -0.483% [at 21 µM], CC(C)Oc1ccccc1OC1(C)CCN(Cc2ccc(OC(F)(F)F)cc2)C1 (configuration not stated) 17.1%, CCCC#Cc1cnc2c(c1)C(=O)N([C@@H](C)CO)C[C@@H](C)[C@H](CN(C)C(=O)c1ccc3c(c1)OCO3)O2 14%, O=C1Nc2ccccc2C(=O)N(C2CCCC2)C1C(=O)NC1CC1 (configuration not stated) -7.26%, CC(C)(C)NC(=O)C(c1cccc2ccccc12)n1c(=O)c(-c2ccccc2)nc2ccccc21 (configuration not stated) -34.4%, Cc1ccccc1S(=O)(=O)N1C[C@@H](O)COC[C@@H]2O[C@H](CC(=O)N3CCCCC3)CC[C@H]21 8.68%, O=S(=O)(NCCC1=CCCCC1)c1ccc(Br)cc1 3.04%, CSCCC(NS(=O)(=O)c1cccs1)C(=O)NCc1ccccc1 (configuration not stated) -0.773%, O=C(C1CCCCC1)N1C[C@H](O)[C@@H](n2cc(C3CC3)nn2)C[C@@H]1c1ccccc1 3.91%, O=C(NCCN1CCC(n2c(=O)[nH]c3ccccc32)CC1)c1ccccc1 8.45%, CC(C)(C)OC(=O)N1CCC(NC(=O)c2nc[nH]c2C(=O)NCc2ccccc2)CC1 20%, CN(CC(=O)Nc1ccc(F)cc1)C(=O)COC(=O)c1nc(Cl)ccc1Cl 9.36%, CC(C)Cn1c(=S)[nH]c2cc(C(=O)NCc3ccccc3F)ccc2c1=O 0.65%, O=C1c2ccccc2CN1CCSC(=S)N1CCOCC1 -2.61%, CC(C)SCc1cc(N2CCCC2)nc(-c2ccccc2)n1 -9.75%, COCCNC(=O)CCC1CCN(Cc2ccc(-c3ccccc3)cc2)CC1 -10.3%, CC(C)(C)NC(=O)COc1coc(CN2CCN(Cc3ccccc3)CC2)cc1=O 10.1%, C[C@@H]1CN([C@@H](C)CO)C(=O)c2cc(C#Cc3cccc(F)c3)cnc2O[C@@H]1CN(C)C(=O)C1CCC1 -0.303%, COc1ccc(-c2cc(C(=O)NCCCN3CCCC3=O)c3ccccc3n2)cc1 -27.2%, CC(C)CNC(=O)C1(C)CCCCCN1C(=O)c1csnn1 (configuration not stated) 28.5%, Cc1noc(C)c1NC(=O)Nc1ccc2c(c1)C(=O)N([C@H](C)CO)C[C@@H](C)[C@H](CN(C)S(=O)(=O)c1ccc(F)cc1)O2 5.12%, COc1ccc(NC(=O)C2CCCN2S(=O)(=O)c2ccc3c(c2)CCC(=O)N3)c(OC)c1 (configuration not stated) 1.59%, COc1ccc(N(CC(=O)NCCSc2ccccc2)S(=O)(=O)c2ccccc2)c(OC)c1 -3.02%, O=C(c1ccccc1Cc1ccccc1)N1CCN(S(=O)(=O)c2ccccc2)CC1 0.551%, COc1ccc(C(CNC(=O)COc2cc(C)ccc2Cl)N2CCCCC2)cc1 (configuration not stated) -7.55%, Cc1ccc(-c2csc(NCCn3c(C)nc4cc(C(F)(F)F)ccc43)n2)cc1 28.3%, O=c1cc(-c2cccc(F)c2)[nH]c2ccccc12 -10.6%, COc1ccc([C@H]2/C=C\CN(C(=O)c3ccc(C)cc3)[C@@H](C)C(=O)N2Cc2ccc(F)cc2)cc1 -6.91%, CC(=O)N1[C@H](CO)[C@@H](c2ccc(-c3cccc(F)c3)cc2)[C@H]1CNC(=O)C1CC1 18%, CC(C)(C)OC(=O)NC(CC(=O)OCc1ccccc1)C(=O)O (configuration not stated) 21.4%, CCOc1ccc(C(=O)NCC(=O)N2CCCCCCC2)cc1 11.9%, CCNC(=O)C[C@@H]1CC[C@@H]2[C@H](COc3ccc(NC(=O)c4ccc(F)c(F)c4)cc3C(=O)N2C)O1 -3.02%, COc1ccccc1-c1cncc(NC(C)=O)n1 0.302%, O=C(Nc1ccc(Br)cc1F)C1CCN(c2nnc(-n3cccc3)s2)CC1 -17.6%, Cc1ccc(CNC(=O)C2CCC(=O)N(CCc3ccccn3)C2)s1 (configuration not stated) -1.35%, COc1cccc(NC(=O)N2[C@@H]3CNC[C@H]2C3c2ccc(-c3ccccc3)cc2)c1 (some centres not stated) -7.29% [at 21 µM], CCCN1[C@H](C(=O)OC)[C@@H](CO)[C@@H]2Cn3c(ccc(C4=CCCC4)c3=O)[C@@H]21 8.66%, Cc1ccc(C)c(NS(=O)(=O)c2cc(C(=O)NCc3ccncc3)ccc2C)c1 15.2%, CCOc1cccc(-c2c(C(=O)N/N=C/c3ccc(Br)cc3)nnn2-c2nonc2N)c1 -1.09%, CCCCOc1ccc(C(=O)NCCOc2cccc(OC)c2)cc1 -13.7%, Cc1nc(C(F)(F)F)ccc1C(=O)N1CCC1(C)C(=O)NS(=O)(=O)c1ccc(C#N)cc1 (configuration not stated) -3.13%, C[C@@H]1CCCCO[C@H](CN(C)Cc2ccc(C(F)(F)F)cc2)[C@H](C)CN([C@@H](C)CO)C(=O)c2cc(NC(=O)c3ccccc3)ccc2O1 -3.09% [at 5 µM], Nc1ccccc1C(O)(Cc1ccccc1)c1ccccc1 (configuration not stated) 23.5%, O=C(C[C@H]1CC[C@H]2[C@@H](COC[C@H](O)CN2C(=O)Nc2ccc(Cl)cc2)O1)NCC1CC1 -2.79%
